Experimental data from the supplement of paper PMC10849652.
This is one part of the list.

Chains of the proteins cited; added tags and fusions are not shown. Lines headed by an entry give the natural chain unless they say otherwise; changes in a name come on top.
UniProt P10412, whole entry, looked up: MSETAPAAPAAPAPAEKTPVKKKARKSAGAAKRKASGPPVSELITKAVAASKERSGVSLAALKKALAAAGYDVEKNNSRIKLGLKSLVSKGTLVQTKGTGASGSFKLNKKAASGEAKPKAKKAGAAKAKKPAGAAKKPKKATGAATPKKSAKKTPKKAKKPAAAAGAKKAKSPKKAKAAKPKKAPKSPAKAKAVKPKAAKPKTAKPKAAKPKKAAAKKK
UniProt P16402, whole entry, looked up: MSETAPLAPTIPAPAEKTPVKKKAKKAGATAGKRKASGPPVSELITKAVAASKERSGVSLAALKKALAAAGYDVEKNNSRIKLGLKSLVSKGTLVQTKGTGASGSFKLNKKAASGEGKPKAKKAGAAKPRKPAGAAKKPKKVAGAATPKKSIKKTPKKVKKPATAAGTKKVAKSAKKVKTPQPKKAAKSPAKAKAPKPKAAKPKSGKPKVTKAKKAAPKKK
UniProt P04921: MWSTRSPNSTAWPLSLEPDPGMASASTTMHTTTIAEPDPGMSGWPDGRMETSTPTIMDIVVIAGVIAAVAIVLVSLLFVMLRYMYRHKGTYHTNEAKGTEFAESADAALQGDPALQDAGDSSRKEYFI
UniProt Q96CS2: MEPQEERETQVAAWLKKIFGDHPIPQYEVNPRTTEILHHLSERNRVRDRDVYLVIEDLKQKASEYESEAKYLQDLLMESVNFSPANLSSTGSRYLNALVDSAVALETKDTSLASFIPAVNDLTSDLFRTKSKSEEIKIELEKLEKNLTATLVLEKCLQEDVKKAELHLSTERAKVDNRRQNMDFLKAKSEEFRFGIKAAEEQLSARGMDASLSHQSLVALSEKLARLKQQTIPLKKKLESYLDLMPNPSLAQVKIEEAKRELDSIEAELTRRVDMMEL
UniProt A4D1E9: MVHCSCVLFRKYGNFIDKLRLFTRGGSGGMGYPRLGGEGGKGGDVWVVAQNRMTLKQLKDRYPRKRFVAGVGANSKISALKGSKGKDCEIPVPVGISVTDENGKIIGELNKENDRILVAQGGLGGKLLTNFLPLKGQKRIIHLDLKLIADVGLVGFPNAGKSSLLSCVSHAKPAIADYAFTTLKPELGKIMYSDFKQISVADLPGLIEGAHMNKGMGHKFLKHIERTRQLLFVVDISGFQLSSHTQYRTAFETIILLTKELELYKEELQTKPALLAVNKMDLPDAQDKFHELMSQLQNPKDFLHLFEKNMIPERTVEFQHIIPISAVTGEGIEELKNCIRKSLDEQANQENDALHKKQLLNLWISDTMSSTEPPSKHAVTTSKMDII
UniProt P09105: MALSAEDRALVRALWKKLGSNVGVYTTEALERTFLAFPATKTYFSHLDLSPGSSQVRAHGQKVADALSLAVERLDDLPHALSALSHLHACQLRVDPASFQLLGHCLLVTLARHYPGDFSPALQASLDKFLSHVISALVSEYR
UniProt Q92664: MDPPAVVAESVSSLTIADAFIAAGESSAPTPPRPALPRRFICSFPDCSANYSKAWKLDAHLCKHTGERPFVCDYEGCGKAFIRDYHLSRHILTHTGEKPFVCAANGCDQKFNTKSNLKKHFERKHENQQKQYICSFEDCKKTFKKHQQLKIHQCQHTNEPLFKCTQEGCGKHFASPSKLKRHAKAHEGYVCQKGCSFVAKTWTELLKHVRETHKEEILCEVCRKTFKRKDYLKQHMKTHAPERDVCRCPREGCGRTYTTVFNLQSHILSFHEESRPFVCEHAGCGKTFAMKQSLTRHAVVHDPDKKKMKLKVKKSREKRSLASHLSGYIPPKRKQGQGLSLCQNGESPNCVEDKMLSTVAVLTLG
UniProt P49841: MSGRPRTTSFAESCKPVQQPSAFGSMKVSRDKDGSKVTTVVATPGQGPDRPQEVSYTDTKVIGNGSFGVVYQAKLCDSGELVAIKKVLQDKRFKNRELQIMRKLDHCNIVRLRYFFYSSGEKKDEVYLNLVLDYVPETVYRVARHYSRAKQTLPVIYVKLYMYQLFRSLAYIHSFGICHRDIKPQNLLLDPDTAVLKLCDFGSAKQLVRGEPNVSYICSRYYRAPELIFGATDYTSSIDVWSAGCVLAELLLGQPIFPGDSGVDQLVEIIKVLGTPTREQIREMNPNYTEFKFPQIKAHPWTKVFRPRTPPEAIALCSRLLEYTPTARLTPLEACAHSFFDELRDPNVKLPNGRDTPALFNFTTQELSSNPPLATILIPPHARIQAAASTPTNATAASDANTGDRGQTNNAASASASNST
UniProt Q9Y450, whole entry, looked up: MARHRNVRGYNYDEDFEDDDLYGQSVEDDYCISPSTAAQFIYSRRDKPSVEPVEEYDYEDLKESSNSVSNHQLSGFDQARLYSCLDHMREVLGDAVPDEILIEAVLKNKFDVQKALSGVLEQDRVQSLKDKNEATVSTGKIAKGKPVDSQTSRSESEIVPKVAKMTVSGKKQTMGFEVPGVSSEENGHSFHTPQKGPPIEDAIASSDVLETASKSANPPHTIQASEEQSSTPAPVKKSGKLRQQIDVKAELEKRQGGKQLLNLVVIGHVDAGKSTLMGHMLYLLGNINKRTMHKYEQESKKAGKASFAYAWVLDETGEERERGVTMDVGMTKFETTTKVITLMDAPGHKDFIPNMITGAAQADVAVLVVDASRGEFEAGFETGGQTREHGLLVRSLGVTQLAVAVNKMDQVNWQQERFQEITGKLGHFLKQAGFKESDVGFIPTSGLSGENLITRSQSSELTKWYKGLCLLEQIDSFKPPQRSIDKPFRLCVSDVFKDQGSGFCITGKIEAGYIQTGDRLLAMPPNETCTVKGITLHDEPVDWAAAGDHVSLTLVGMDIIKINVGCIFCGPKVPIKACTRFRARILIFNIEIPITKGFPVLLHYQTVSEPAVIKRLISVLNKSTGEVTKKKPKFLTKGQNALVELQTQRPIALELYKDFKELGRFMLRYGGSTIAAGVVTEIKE
UniProt Q7Z4H3: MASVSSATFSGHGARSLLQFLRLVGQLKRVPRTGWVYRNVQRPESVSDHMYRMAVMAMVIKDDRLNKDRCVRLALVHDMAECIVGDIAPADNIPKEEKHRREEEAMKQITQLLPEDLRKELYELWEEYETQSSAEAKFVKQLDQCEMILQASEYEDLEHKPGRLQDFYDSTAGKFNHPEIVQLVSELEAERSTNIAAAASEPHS
UniProt P48637: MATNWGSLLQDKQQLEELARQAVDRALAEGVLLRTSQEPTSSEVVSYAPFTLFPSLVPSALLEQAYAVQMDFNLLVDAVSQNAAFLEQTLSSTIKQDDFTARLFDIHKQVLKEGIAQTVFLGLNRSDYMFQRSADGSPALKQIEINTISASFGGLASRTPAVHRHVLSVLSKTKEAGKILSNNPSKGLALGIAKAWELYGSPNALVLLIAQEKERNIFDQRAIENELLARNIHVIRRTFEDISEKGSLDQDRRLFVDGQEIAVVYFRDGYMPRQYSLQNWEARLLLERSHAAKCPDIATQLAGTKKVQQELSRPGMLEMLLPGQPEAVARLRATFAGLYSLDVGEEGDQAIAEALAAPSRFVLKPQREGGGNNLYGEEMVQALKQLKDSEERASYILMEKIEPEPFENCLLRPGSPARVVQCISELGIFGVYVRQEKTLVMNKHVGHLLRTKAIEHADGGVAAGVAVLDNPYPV
UniProt O15488: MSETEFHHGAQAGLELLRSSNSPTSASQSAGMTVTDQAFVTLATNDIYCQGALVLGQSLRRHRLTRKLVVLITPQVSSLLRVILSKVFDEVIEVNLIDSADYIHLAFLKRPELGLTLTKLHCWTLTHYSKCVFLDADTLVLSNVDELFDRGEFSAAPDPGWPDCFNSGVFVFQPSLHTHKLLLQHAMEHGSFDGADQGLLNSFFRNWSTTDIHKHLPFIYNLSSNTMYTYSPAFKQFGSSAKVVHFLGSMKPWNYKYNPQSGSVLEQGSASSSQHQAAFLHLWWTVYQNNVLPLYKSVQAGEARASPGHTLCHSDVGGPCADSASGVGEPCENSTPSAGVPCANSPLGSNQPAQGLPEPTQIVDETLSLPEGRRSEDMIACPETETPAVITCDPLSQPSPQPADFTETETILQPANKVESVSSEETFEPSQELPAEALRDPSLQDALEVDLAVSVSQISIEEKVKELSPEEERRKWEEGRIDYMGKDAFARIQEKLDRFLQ
UniProt Q13547, whole entry, looked up: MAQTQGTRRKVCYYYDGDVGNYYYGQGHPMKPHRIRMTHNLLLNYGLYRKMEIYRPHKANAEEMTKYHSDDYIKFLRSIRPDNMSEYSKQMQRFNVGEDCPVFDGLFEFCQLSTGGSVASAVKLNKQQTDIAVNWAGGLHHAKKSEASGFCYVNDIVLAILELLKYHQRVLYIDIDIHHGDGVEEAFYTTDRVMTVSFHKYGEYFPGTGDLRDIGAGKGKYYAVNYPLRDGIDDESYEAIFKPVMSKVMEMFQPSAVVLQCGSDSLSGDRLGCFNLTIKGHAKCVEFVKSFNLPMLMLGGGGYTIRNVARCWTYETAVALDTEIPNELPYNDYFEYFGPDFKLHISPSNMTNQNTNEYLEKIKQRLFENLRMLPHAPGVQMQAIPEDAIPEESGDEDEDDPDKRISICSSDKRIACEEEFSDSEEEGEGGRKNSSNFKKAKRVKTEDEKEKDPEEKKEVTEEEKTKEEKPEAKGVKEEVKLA
UniProt P32780: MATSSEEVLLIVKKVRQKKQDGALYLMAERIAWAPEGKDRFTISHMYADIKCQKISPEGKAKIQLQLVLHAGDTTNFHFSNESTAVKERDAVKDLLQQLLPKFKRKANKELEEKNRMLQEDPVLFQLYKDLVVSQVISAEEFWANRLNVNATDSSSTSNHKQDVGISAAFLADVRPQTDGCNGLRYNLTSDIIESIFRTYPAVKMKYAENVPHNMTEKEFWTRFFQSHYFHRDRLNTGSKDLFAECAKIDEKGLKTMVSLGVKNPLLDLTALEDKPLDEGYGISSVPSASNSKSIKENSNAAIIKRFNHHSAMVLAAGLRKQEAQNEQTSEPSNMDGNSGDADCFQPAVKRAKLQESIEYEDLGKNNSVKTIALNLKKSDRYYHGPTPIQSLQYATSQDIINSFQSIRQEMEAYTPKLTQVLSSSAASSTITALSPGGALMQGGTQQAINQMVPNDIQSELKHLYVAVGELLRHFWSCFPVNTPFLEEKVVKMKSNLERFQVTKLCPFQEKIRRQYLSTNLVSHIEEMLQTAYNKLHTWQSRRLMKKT
UniProt Q6PII5: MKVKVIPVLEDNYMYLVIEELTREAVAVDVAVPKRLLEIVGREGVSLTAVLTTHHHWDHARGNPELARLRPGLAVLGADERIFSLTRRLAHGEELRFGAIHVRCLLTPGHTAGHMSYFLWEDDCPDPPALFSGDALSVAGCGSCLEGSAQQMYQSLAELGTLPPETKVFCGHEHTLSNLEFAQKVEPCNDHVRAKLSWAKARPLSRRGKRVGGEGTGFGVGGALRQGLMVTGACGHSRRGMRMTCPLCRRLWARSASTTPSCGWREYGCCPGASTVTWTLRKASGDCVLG
UniProt P78347: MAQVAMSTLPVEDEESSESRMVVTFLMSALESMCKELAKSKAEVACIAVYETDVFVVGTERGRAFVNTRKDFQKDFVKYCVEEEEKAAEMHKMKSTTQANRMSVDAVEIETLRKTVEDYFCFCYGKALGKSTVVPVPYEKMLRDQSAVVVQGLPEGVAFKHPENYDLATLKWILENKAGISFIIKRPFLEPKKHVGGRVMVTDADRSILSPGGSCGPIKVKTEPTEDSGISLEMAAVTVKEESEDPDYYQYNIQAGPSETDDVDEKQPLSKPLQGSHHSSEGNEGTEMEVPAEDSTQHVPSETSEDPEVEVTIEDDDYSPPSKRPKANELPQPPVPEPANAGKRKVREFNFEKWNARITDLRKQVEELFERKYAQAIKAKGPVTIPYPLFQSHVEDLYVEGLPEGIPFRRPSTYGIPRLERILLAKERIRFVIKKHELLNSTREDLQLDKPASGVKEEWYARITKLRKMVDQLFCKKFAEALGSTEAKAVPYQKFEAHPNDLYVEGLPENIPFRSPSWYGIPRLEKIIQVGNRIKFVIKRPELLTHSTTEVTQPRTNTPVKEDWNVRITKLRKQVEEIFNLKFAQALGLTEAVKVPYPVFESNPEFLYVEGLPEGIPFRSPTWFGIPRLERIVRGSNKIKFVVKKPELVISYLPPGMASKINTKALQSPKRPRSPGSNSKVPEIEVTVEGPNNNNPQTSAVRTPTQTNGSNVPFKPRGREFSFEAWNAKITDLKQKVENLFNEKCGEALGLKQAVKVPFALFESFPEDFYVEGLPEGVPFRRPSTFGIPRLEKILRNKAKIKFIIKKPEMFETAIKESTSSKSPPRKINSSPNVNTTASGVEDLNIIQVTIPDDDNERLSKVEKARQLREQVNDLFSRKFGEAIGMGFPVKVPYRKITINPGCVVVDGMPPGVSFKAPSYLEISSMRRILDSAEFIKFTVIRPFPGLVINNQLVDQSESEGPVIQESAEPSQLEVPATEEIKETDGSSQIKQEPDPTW
UniProt P30711: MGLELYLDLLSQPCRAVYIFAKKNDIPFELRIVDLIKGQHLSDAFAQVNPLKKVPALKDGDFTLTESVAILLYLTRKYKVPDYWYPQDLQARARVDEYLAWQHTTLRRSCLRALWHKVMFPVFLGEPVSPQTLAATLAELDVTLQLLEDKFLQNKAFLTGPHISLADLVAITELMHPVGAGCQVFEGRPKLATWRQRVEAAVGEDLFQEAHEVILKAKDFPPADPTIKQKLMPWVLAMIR

Compound: CC1=C2C(=CC=C1)N=C(N(C2=O)C3=CC=CC=C3C)CN4C=NC5=C(N=CN=C54)N
Experiment: log2 fold change, soluble protein after heating vs DMSO (PISA); higher = thermal stabilisation; K562 lysate, 10 uM; active = over 0.2 and 3.5 SD of the protein, either way, in both replicates (recomputed)
Outline: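 K562 pellets were dounce-homogenised in PBS pH 7.4 with 1 mM MgCl2, and the crude extract at 1 mg/mL protein was treated with 10 μM compound for 30 min. Aliquots were heated for 3 min across 48°C-58°C, pooled, and brought to 0.5% NP-40 at 4°C; soluble protein was the supernatant after 21,000xg for 90 min. Soluble protein was quantified by TMTpro 16plex LC-MS/MS with channel sums equalised, and reported as log2 fold change in thermal stability against DMSO controls, with values from duplicates.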

Target | log2 fold change
H1-4 (UniProt P10412) | inactive: -0.06
H1-3 (UniProt P16402) | inactive: -0.029
GYPC (UniProt P04921) | inactive: -0.013
GSTP1 (UniProt P09211) | inactive: -0.003
HAUS1 (UniProt Q96CS2) | inactive: 0.02
GTPBP10 (UniProt A4D1E9) | inactive: -0.007
HAUS8 (UniProt Q9BT25) | inactive: 0
GTSF1 (UniProt Q8WW33) | inactive: 0.004
HEATR1 (UniProt Q9H583) | inactive: 0.042
H1FX (UniProt Q92522) | inactive: -0.026
HBQ1 (UniProt P09105) | inactive: -0.046
GTF3A (UniProt Q92664) | inactive: -0.019
HDGFL2 isoform 2 (UniProt Q7Z4V5) | inactive: 0.01
GSK3B isoform 2 (UniProt P49841) | inactive: -0.042
HBS1L isoform 2 (UniProt Q9Y450) | inactive: -0.031
HDDC2 (UniProt Q7Z4H3) | inactive: -0.032
HBS1L (UniProt Q9Y450) | inactive: 0.018
GRIPAP1 (UniProt Q4V328) | inactive: 0.007

Part of the list above in a different format.

| Target | log2 fold change |
| --- | --- |
| GTF3A (UniProt Q92664) | inactive: -0.019 |
| HDGFL2 isoform 2 (UniProt Q7Z4V5) | inactive: 0.01 |
| GSK3B isoform 2 (UniProt P49841) | inactive: -0.042 |
| HBS1L isoform 2 (UniProt Q9Y450) | inactive: -0.031 |
| HDDC2 (UniProt Q7Z4H3) | inactive: -0.032 |
| HBS1L (UniProt Q9Y450) | inactive: 0.018 |

The list goes on.

Target | log2 fold change
GTF2B (UniProt Q00403) | inactive: -0.006
GSS (UniProt P48637) | inactive: -0.019
GYG2 (UniProt O15488) | inactive: 0.036
GSPT2 (UniProt Q8IYD1) | inactive: 0.029
GTF2A2 (UniProt P52657) | inactive: 0.002
UniProt H0YHG0 | inactive: -0.011
HDAC6 (UniProt Q9UBN7) | inactive: -0.017
HDAC1 (UniProt Q13547) | inactive: 0.001
GTF2H1 (UniProt P32780) | inactive: 0.089
HBE1 (UniProt P02100) | inactive: -0.032
HAGHL isoform 2 (UniProt Q6PII5) | inactive: -0.035
GTF2F1 (UniProt P35269) | inactive: 0.003
GTPBP3 isoform 2 (UniProt Q969Y2) | inactive: 0.118
GTF2I (UniProt P78347) | inactive: 0.009
GSTZ1 (UniProt G3V4T6) | inactive: -0.036
GSTT1 (UniProt P30711) | inactive: 0.01
HDGFL3 (UniProt Q9Y3E1) | inactive: -0.008
